Test results taken from patent US20090215992A1 (published 2009).
These are yes or no findings as the source states them, for the method shown. Some entries that bind do so weakly or less than the wild type.

By UniProt entry, the sequences of proteins in these tests, tags left out. Residues count along the entry.
UniProt P01583, residues 113-271: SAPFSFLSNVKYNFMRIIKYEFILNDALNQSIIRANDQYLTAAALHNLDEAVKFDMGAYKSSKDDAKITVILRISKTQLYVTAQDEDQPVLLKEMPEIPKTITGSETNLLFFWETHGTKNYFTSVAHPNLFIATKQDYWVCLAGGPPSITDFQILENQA

Assays:
[1] = molecular target: recombinant human IL-1α (human) (UniProt P01583); assay: SPR (Biacore)
[2] = molecular target: recombinant human IL-1α (human) (UniProt P01583); assay: SPR (Biacore) and MRC-5 bioassay

binding [1]: binds
binding [2]: binds
B1: chimeric 3D12.E3 antibody (3D12.E3-VH-hCγ1 / 3D12.E3-VL-hCk) (antibody, human IgG1, kappa, V domains shown)
VH: QIQLVQSGPELKKPGETVKISCKASGYTFRNYGMNWVKQAPGKDLKRMAWINTYTGESTYADDFKGRFAFSLETSASTAYLQINNLKNEDTATYFCARGIYYYGSSYAMDYWGQGTSVTVSS
VL: NIQMTQTTSSLSASLGDRVTISCRASQDISNCLNWYQQKPDGTVKLLIYYTSRLHSGVPSRFSGSGSGTDYSLTISNLEQEDIATYFCQQGKTLPYAFGGGTKLEINR
